This note sets out measurements from PubChem BioAssay AID248 (DTP/NCI, 2004).

The test system of the experiment is L1210 leukemia ip in BDF1 mice, survival T/C. Nature of the experiment: NCI In Vivo Anticancer Drug Screen. Data for tumor model L1210 Leukemia (intraperitoneal) in B6D2F1 (BDF1) mice. The conditions noted are these: T/C endpoint: mean survival time, higher T/C = longer survival.
[1] abbreviates: dose: 400.0 mg/kg/injection, schedule: Q01DX001 (ip), vehicle: saline.
Where [2] appears, read: dose: 200.0 mg/kg/injection, schedule: Q04DX003 (ip), vehicle: Klucel (hydroxypropylcellulose) (HPC).
[3] abbreviates: dose: 400.0 mg/kg/injection, schedule: Q04DX003 (ip), vehicle: Klucel (hydroxypropylcellulose) (HPC).

The list is a part of this screen's results and no random one: it is rich in T/C values a quarter to a half above the control, in often repeated tests (any T/C) and in doses without a T/C. Other doses and runs of a compound stand elsewhere. T/C gives the treated animals as a percentage of the vehicle group. Some entries give survivors of the animals treated and no T/C: the source holds a T/C of zero for them, seemingly a mark for toxic or unscored doses. Some survivor counts are full or nearly so, which does not show that the dose was tolerated: the source hardly ever lists a survival T/C far under the control, and the zero likely stands for such cases as well. Survivors were counted at the toxicity check, usually on the fifth day, unless a day is given; later deaths do not show. Schedules are NCI's codes, taken here to give the interval after Q, in days (D) or hours (H), and the number of doses after X. Where survival is the endpoint, this PubChem deposit counts one and a half times the control or more as active, and values a quarter to a half above the control carry no call in these data; other NCI protocols may use other cut-offs.

On to `C[n+]1c(/C=C/c2c[nH]c3ccccc23)ccc2ccccc21`, for which the survivor count is, setting by setting: (dose: 100.0 mg/kg/injection, schedule: Q01DX001 (ip), vehicle: saline) 3 of 6; (dose: 200.0 mg/kg/injection, schedule: Q01DX001 (ip), vehicle: saline) 0 of 6; under setting [1], 1 of 6.

With `COc1cccc(NC(=O)NCCCl)c1`, the survivor count (dose: 100.0 mg/kg/injection, schedule: Q04DX003 (ip), vehicle: Klucel (hydroxypropylcellulose) (HPC)) is 6 of 6; the survivor count under setting [2] is 6 of 6; the survivor count under setting [3] is on record as 6 of 6.

As for `Clc1ccc2c(Cl)ccnc2c1`, where the note is “dose: 400.0 mg/kg/injection, schedule: Q04DX002 (ip), vehicle: gum acacia”, the survivor count is recorded as 0 of 3.

As for `Fc1ccc(NC(=S)S)cc1`, the survivor count runs as follows: (dose: 100.0 mg/kg/injection, schedule: Q04DX003 (ip), vehicle: saline) 3 of 6; (dose: 200.0 mg/kg/injection, schedule: Q04DX003 (ip), vehicle: saline) 0 of 6; (dose: 400.0 mg/kg/injection, schedule: Q04DX003 (ip), vehicle: saline) 0 of 6.

Consider `CCC(=O)C(CC(C)[N+](C)(C)C)(c1ccccc1)c1ccccc1` (stereo not given), for which the survivor count is recorded as 0 of 4 (dose: 200.0 mg/kg/injection, schedule: Q01DX001 (ip), vehicle: carboxymethylcellulose (CMC)) and 0 of 4 (dose: 400.0 mg/kg/injection, schedule: Q01DX001 (ip), vehicle: carboxymethylcellulose (CMC)).

With `C=CCOC1C=CC=CC=C1`, the survivor count by setting is: (dose: 100.0 mg/kg/injection, schedule: Q01DX009 (ip), vehicle: Klucel (hydroxypropylcellulose) (HPC)) 0 of 6; under setting [2], 0 of 6; under setting [3], 0 of 6.

Regarding `Nc1nc([Se])c2cc[nH]c2n1`, the survivor count runs as follows: (dose: 100.0 mg/kg/injection, schedule: Q01DX009 (ip), vehicle: water) 3 of 6; (dose: 200.0 mg/kg/injection, schedule: Q04DX003 (ip), vehicle: water) 3 of 6; (dose: 400.0 mg/kg/injection, schedule: Q04DX003 (ip), vehicle: water) 1 of 6.

For the compound `CC1CCCCN1P(=[Se])(c1ccccc1)N1CCCCC1C` (stereo not given), the survivor count reads like this: under setting [2], 2 of 6; under setting [3], 0 of 6.

For the compound `CN(C)c1ccc(C(C#N)(c2ccc(N(C)C)cc2)c2ccc(N(C)C)cc2)cc1`, the survivor count (dose: 400.0 mg/kg/injection, schedule: Q01DX009 (ip), vehicle: Klucel (hydroxypropylcellulose) (HPC)) is given as 5 of 6.

With `O=C(O)c1cccc(N2C(=O)CSC2=S)c1`, the survivor count (dose: 25.0 mg/kg/injection, schedule: Q04DX002 (ip), vehicle: Klucel (hydroxypropylcellulose) (HPC)) is 3 of 3.

With `COc1ccc(C2=CC(=O)C(c3ccc(OC)cc3)=CC2=O)cc1`, the survivor count (dose: 40.0 mg/kg/injection, schedule: Q01DX009 (ip), vehicle: gum acacia) is reported as 6 of 6.

Consider `Cc1[nH]c2ccc(N=CN(C)C)cc2c1C`, for which the survivor count was 0 of 3 (dose: 200.0 mg/kg/injection, schedule: Q04DX002 (ip), vehicle: saline with Tween-80) and 0 of 3 (dose: 400.0 mg/kg/injection, schedule: Q04DX002 (ip), vehicle: saline with Tween-80).

Consider `COc1ccc(OCCC(=O)O)cc1`, for which the survivor count under setting [1] is listed as 6 of 6.

On to `N=C(N)SCc1c2ccccc2cc2ccccc12`, for which the T/C (dose: 200.0 mg/kg/injection, schedule: Q01DX009 (ip), vehicle: saline) is 125 % of control. Further, the survivor count is 5 of 6 (dose: 300.0 mg/kg/injection, schedule: Q01DX009 (ip), vehicle: saline sonified) and 0 of 6 (dose: 400.0 mg/kg/injection, schedule: Q01DX009 (ip), vehicle: saline).

With `c1coc(-c2ncnc3c2Cc2ccccc2-3)c1`, the survivor count is given as 6 of 6 (dose: 12.5 mg/kg/injection, schedule: Q04DX003 (ip), vehicle: Klucel (hydroxypropylcellulose) (HPC)); 6 of 6 (dose: 150.0 mg/kg/injection, schedule: Q01DX009 (ip), vehicle: Klucel (hydroxypropylcellulose) (HPC)); 3 of 6 under setting [2]; 6 of 6 (dose: 225.0 mg/kg/injection, schedule: Q01DX009 (ip), vehicle: Klucel (hydroxypropylcellulose) (HPC)); 1 of 6 (dose: 335.0 mg/kg/injection, schedule: Q01DX009 (ip), vehicle: Klucel (hydroxypropylcellulose) (HPC)); 0 of 6 under setting [3].

In the case of `Cc1ccccc1S(=O)(=O)NC1c2ccccc2Oc2ccccc21`, the survivor count is listed as 6 of 6 (dose: 150.0 mg/kg/injection, schedule: Q01DX009 (ip), vehicle: saline) and 6 of 6 (dose: 300.0 mg/kg/injection, schedule: Q01DX009 (ip), vehicle: saline).

Turning to `COc1ccc(CC2c3cc(OC)c(OC)cc3CC[N+]2(C)C)cc1OC` (stereo not given), the survivor count (dose: 100.0 mg/kg/injection, schedule: Q01DX001 (ip), vehicle: Klucel (hydroxypropylcellulose) (HPC)) was 2 of 6 and the survivor count (dose: 200.0 mg/kg/injection, schedule: Q01DX001 (ip), vehicle: Klucel (hydroxypropylcellulose) (HPC)) was 0 of 6.

For `C=CCONC(=O)Oc1ccccc1`, for the setting “dose: 300.0 mg/kg/injection, schedule: Q01DX001 (ip), vehicle: other”, the survivor count is listed as 0 of 6.
